These are yes or no findings as the source states them, for the method shown. In cells and extracts the contact can be indirect. A yes stands for co-enrichment or nearness to the bait. Other partners may have been found.

Holding throughout (test): affinity purification with mass spectrometry
Assay [1] concerns the target TAP-ZC3H5 (Trypanosoma brucei) (UniProt Q57WV7).
Assay [2] has as its target V5-Tb927.11.4900 (Trypanosoma brucei) (UniProt Q385S8).
Assay [3] deals with V5-Tb927.7.3040 (Trypanosoma brucei) (UniProt Q57YB4).
The target in assay [4] is V5-Tb927.8.1500 (Trypanosoma brucei) (UniProt Q580H3).

As for “Tb927.8.1500 protein (from UniProt Q580H3)”, the binding entry in assay [1], in assay [2] and in assay [3] was “binds” each time.
With “trypanosome homologue of Saccharomyces cerevisiae Sdo1 (Tb927.4.3140) (from UniProt Q583Z1)”, the binding result in assay [2], in assay [3] and in assay [4] was “binds weakly” throughout.
For the substance “Tb927.11.4900 protein (from UniProt Q385S8)”, the binding result in assay [1], in assay [3] and in assay [4] was “binds” each time.
“TBC-B (Tb927.7.2470) (from UniProt Q57XM7)”: the binding entry in assay [2], in assay [3] and in assay [4] was “binds weakly” throughout.

Values taken from doi:10.1101/2020.05.19.104984.
